# Measurements reported in PubChem BioAssay AID1259254 (NCATS, 2017).
# Test: 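Genome-wide screen for genes that prevent DNA re-replication in cancer cells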 (primary screen)
# Cell system: human HCT116 colorectal cancer cells
# Reagent: single siRNA against human genes
# Timing: 3 days
# Read-out: 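Nuclei stained with Hoechst and imaged; cell-cycle phase assigned by DNA content; G2 share scaled per plate, non-targeting siRNA 0%, GMNN siRNA 100%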
# Reading the numbers: G2 robust z-score and G2 cells, % of GMNN control: higher = more G2 cells, more excess DNA replication
# Hit rule: 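An siRNA counts as active if its G2 robust z-score lies at least 5 MADs above the screen median; here such calls match roughly 38% of GMNN control or more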
# The whole screen tested about 59,000 reagents; this is an unselected part. In the full data, about 1,550 (2.6%) are marked active. 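G2 share is only a proxy for re-replication; each gene was hit by three separate siRNAs, and active genes were retested.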 The numbers tell different reagents against one gene apart. Not all columns of the deposit are shown. Not given: the amount of reagent.
Target gene,siRNA no.,G2 robust z-score,"G2 cells, % of GMNN control",Outcome
CMTR1,1,-0.56,-0.973,inactive
CMTR1,2,-0.789,-2.58,inactive
CMTR1,3,0.191,4.31,inactive
MIPEP,1,0.207,4.42,inactive
MIPEP,2,3.19,25.4,inactive
MIPEP,3,0.0137,3.06,inactive
KIF20A,1,-0.0294,2.76,inactive
KIF20A,2,-0.207,1.51,inactive
KIF20A,3,0.461,6.21,inactive
AJUBA,1,-0.11,2.2,inactive
AJUBA,2,-0.112,2.18,inactive
AJUBA,3,0.163,4.12,inactive
NR3C2,1,-0.369,0.372,inactive
NR3C2,2,-0.773,-2.47,inactive
NR3C2,3,-0.479,-0.403,inactive
CDSN,1,1.37,12.6,inactive
CDSN,2,0.642,7.48,inactive
CDSN,3,3.23,25.7,inactive
HSF5,1,0.487,6.4,inactive
HSF5,2,2.06,17.5,inactive
HSF5,3,1.87,16.1,inactive
PKN2,1,-0.147,1.93,inactive
PKN2,2,0.516,6.6,inactive
PKN2,3,-0.936,-3.62,inactive
SLC25A39,1,-0.485,-0.448,inactive
SLC25A39,2,5.54,41.9,active
SLC25A39,3,1.65,14.6,inactive
IAH1,1,0.0796,3.53,inactive
IAH1,2,-0.123,2.1,inactive
IAH1,3,-0.257,1.16,inactive
DRP2,1,0.529,6.69,inactive
DRP2,2,-0.885,-3.26,inactive
DRP2,3,-0.37,0.361,inactive
HTR5A,1,3.5,27.6,inactive
HTR5A,2,-1.61,-8.38,inactive
HTR5A,3,-0.242,1.26,inactive
MIR2052HG,1,0.266,4.84,inactive
MIR2052HG,2,0.552,6.85,inactive
MIR2052HG,3,2.51,20.6,inactive
HAUS4,1,-0.193,1.61,inactive
HAUS4,2,1.15,11.1,inactive
HAUS4,3,3.03,24.3,inactive

Hits (from the list above):
Target gene,siRNA no.,G2 robust z-score,"G2 cells, % of GMNN control",Outcome
SLC25A39,2,5.54,41.9,active

The results go on.
Target gene,siRNA no.,G2 robust z-score,"G2 cells, % of GMNN control",Outcome
ZNF273,1,2.93,23.6,inactive
ZNF273,2,0.255,4.76,inactive
ZNF273,3,-0.554,-0.928,inactive
CHURC1,1,0.0757,3.5,inactive
CHURC1,2,-0.156,1.87,inactive
CHURC1,3,1.09,10.6,inactive
CTSW,1,-0.79,-2.59,inactive
CTSW,2,1.24,11.7,inactive
CTSW,3,2.72,22.1,inactive
DNAJC28,1,0.286,4.98,inactive
DNAJC28,2,0.139,3.95,inactive
DNAJC28,3,-0.969,-3.85,inactive
GPKOW,1,0.824,8.77,inactive
GPKOW,2,1.94,16.6,inactive
GPKOW,3,-0.491,-0.49,inactive
REV1,1,-0.484,-0.439,inactive
REV1,2,-0.958,-3.77,inactive
REV1,3,-0.996,-4.04,inactive
PMS2P2,1,0.769,8.38,inactive
PMS2P2,2,0.605,7.22,inactive
PMS2P2,3,0.413,5.87,inactive
OR51I1,1,-1.25,-5.81,inactive
OR51I1,2,0.201,4.38,inactive
OR51I1,3,0.521,6.63,inactive
P2RY6,1,0.476,6.32,inactive
P2RY6,2,3.75,29.4,inactive
P2RY6,3,0.238,4.64,inactive
